From PubChem BioAssay AID2685 (National Center for Advancing Translational Sciences (NCATS), 2010)
Some of the results follow. These are further read-outs of the screen, such as a control signal, another cell line or another target. No call is given for them. Compounds called inactive in the main read-out are mostly missing here. The note in brackets gives the kind of curve behind each potency; many fits are weak.

Experiment: qHTS Assay for Lipid Storage Modulators in Drosophila S3 Cells;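 as to cell number change: cells counted by Cell Tracker Red CMTPX staining in the red channel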
Settings: BODIPY lipid droplet fluorescence, 18-24 h; for cell number change: measured here: cell count max response, cells fed with added oleic acid
Summary of the method: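 Drosophila S3 cells got compounds at several concentrations plus oleic acid (400 uM solution). Laser-scanning cytometry with 488 nm excitation read lipid droplets at 500-530 nm and cells at 575-640 nm. Percent activity was relative to 20 uM Triacsin C.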

[1] = measured here: cell number channel AC50, cells fed with added oleic acid
[2] = measured here: lipid fluorescence (Fed channel) AC50, cells fed with added oleic acid

Row | SMILES | cell number change [%] | AC50 [1] | AC50 [2]
1 | Cc1c(C(=O)c2ccc(Cl)cc2Cl)cnc2cc3c(cc12)OCO3 | -32.6 | 32.6 µM [falling, single point] | 29.1 µM [falling, single point]
2 | COc1ccc(C(=O)COC(=O)Cn2nnc3ccccc32)cc1Br | -67.6 | 32.6 µM [falling, partial curve, poor fit] | 20.6 µM [falling, partial curve]
3 | O=C1COc2ccc(C(=O)COC(=O)CNC(=O)c3ccccc3)cc2N1 | 57.4 | 29.1 µM [rising, single point] | 4.11 µM [falling, single point]
4 | CN(c1ccc(OCC(=O)OCC(=O)Nc2ccc(Br)cc2)cc1)S(=O)(=O)c1cccs1 | 4.07 |  | 29.1 µM [falling, single point]
5 | O=C(NCCN1CCOCC1)c1cc(-c2cccc(O)c2)on1 |  |  | 0.58 µM [rising, partial curve]
6 | COc1ccc(S(=O)CC(=O)Nc2ccc(Cl)cc2Cl)cc1 (stereo unspecified) | -1.85 |  | 6.51 µM [falling, single point]
7 | CCOc1ccccc1NC(=O)CCS(=O)(=O)c1ccc2c(c1)CCN2C(C)=O | 17.9 |  | 
8 | O=[N+]([O-])c1ccc(N2CCCCCC2)c([N+](=O)[O-])c1 | 40.1 |  | 
9 | CCSc1nnc(NC(=O)CSc2nc(CC)nc3c2c(=O)n(C)c(=O)n3C)s1 |  | 2.59 µM [rising, partial curve] | 
10 | CC1(C)Cc2cccc(OCC(=O)NCc3cccs3)c2O1 | -11.4 |  | 29.1 µM [falling, single point]
11 | O=C(Cn1c(=O)oc2cc(S(=O)(=O)N3CCCC3)ccc21)Nc1ccccc1Br | -42.4 |  | 10.3 µM [falling, partial curve]
12 | COc1ccc(-c2nn(-c3ccccc3)cc2/C=N/n2cnnc2)cc1OC |  | 2.31 µM [rising, partial curve] | 
13 | COc1ccc(C(=O)NCc2nnc(SCC(=O)Nc3cc(C)cc(C)c3)o2)cc1OC | 62.9 | 29.1 µM [rising, partial curve, poor fit] | 20.6 µM [rising, single point]
14 | COc1ccccc1NC(=O)C(C)OC(=O)Cc1ccsc1 (stereo unspecified) | -25 |  | 6.51 µM [falling, single point]
15 | O=C(Cc1ccccc1[N+](=O)[O-])Nc1cccc(S(=O)(=O)NC2=NCCCCC2)c1 | -46.2 | 29.1 µM [falling, single point] | 
16 | C/C(=N\Nc1ccc([N+](=O)[O-])cc1)c1ccc(-n2nncc2C)cc1 | 40 | 29.1 µM [rising, single point] | 1.46 µM [rising, partial curve]
17 | COc1ccc(Nc2nc(-c3ccccc3)nc3ccccc23)cc1S(=O)(=O)N1CCOCC1 |  |  | 29.1 µM [falling, single point]
18 | c1ccc(-c2noc(-c3cccc4ccccc34)n2)nc1 | 1.96 |  | 
19 | Cc1ccccc1N=Nc1c(N)n[nH]c1N | 27.7 |  | 0.231 µM [rising, full curve, poor fit]
20 | CCOc1ccccc1NC(=O)Nc1ccc(Br)cc1C | 2.4 |  | 

In the list so far, three have a nitro group on carbon.
Row | SMILES | cell number change [%] | AC50 [1] | AC50 [2]
8 | O=[N+]([O-])c1ccc(N2CCCCCC2)c([N+](=O)[O-])c1 | 40.1 |  | 
15 | O=C(Cc1ccccc1[N+](=O)[O-])Nc1cccc(S(=O)(=O)NC2=NCCCCC2)c1 | -46.2 | 29.1 µM [falling, single point] | 
16 | C/C(=N\Nc1ccc([N+](=O)[O-])cc1)c1ccc(-n2nncc2C)cc1 | 40 | 29.1 µM [rising, single point] | 1.46 µM [rising, partial curve]

Going on with the list:

Row | SMILES | cell number change [%] | AC50 [1] | AC50 [2]
21 | COc1ccc(NS(=O)(=O)c2ccc(N3CCOCC3)c(N)c2)cc1 | -36.1 | 9.2 µM [falling, partial curve] | 1.84 µM [falling, full curve]
22 | O=C(Nc1nc2ccccc2n1CCN1CCCCC1)c1ccc(Cl)cc1 |  |  | 0.146 µM [rising, full curve, poor fit]
23 | Cc1cccn2c(=O)c3cc(C(=O)NC4CCCC4)c(=N)n(Cc4ccc(F)cc4)c3nc12 | 20.2 |  | 9.2 µM [falling, partial curve]
24 | CCCc1c(O)nc(SC2CC(=O)N(c3cc(OC)ccc3OC)C2=O)[nH]c1=O (stereo unspecified) | 3.24 | 0.651 µM [falling, full curve] | 0.0164 µM [falling, full curve]
25 | CC(C)(C)OC(=O)NCCCC[C@H](NC(=O)c1nc[nH]c1C(=O)NCC(=O)OCc1ccccc1)C(=O)OC(C)(C)C | -5.09 |  | 18.4 µM [falling, single point]
26 | Cc1onc(-c2ccccc2Cl)c1C(=O)N/N=C(\N)COc1ccc(Cl)cc1 |  |  | 1.16 µM [rising, full curve, poor fit]
27 | Cc1ccc(OC(C)C(=O)Nc2ccncc2)cc1C (stereo unspecified) | -12.6 |  | 
28 | Cc1ccc(NC(=O)Cn2nc(-c3ccco3)ccc2=O)cc1Cl | 23.1 |  | 3.66 µM [falling, full curve, poor fit]
29 | O=C(CSc1nnc(CNC(=O)c2cccs2)o1)Nc1ccccc1 | -29.4 |  | 
30 | CSc1ccc(S(=O)(=O)NCC(=O)OCC(=O)NC2(C#N)CCCCC2)cc1[N+](=O)[O-] | -11 |  | 
31 | O=[N+]([O-])c1ccccc1CNc1ccc(F)c(Cl)c1 | -3.65 |  | 0.461 µM [falling, full curve, poor fit]
32 | CCCn1c(C2CCCN2c2nc(-c3ccc(C)cc3)cs2)nc2cc(Cl)c(N3CCCCC3)cc21 (stereo unspecified) | 29.1 |  | 18.4 µM [rising, partial curve]
33 | COC(=O)N/N=C/c1cn(Cc2ccc(F)cc2)c2ccccc12 | 4.59 |  | 20.6 µM [rising, single point]
34 | CCOC(=O)c1c(NC(=O)COC(=O)c2nccnc2N)sc2c1CCC2 | -62.6 | 23.1 µM [falling, partial curve] | 18.4 µM [falling, single point]
35 | CC(C)OCc1c(C(=O)OC/C(O)=C(\C#N)c2nc3ccccc3[nH]2)oc2ccccc12 | 7.96 |  | 
36 | CCCSc1nc2c(c(=O)n1CC)SC(C)C2 (stereo unspecified) | -4.7 |  | 
37 | Cc1[nH]c2ccc(OC(=O)N3CCOCC3)cc2c1C(=O)OC(C)C | 1.86 |  | 2.31 µM [rising, partial curve, poor fit]
38 | CCOCCCNS(=O)(=O)c1ccc(NC(=O)c2ccc([N+](=O)[O-])cc2Cl)cc1 | 4.71 |  | 0.651 µM [falling, single point]
39 | CCSC1=N/C(=C\C=C2/Oc3ccccc3N2CC)C(=O)S1 | -17.7 |  | 29.1 µM [falling, single point]
